PubChem BioAssay AID1259308, NCATS, 2017

- Purpose: 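Knock-downs that increase output of a recombinant reporter protein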 (primary screen)
- System: human HEK293 embryonic kidney cells stably expressing firefly luciferase (HEK-CMV-Luc2-Hygro)
- Reagents: single siRNA against human genes, 0.8 pmol siRNA per well
- Time to read-out: 72 h
- Read-out: 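Luciferase light (ONE-Glo) measured on one replicate plate set and viability (CellTiter-Glo) on the other, scaled to a negative control siRNA, with robust z-scores and luciferase per cell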
- Scale: total luciferase, z-score: higher = more reporter protein produced
- Rule for the call: 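An siRNA counts as active if its total luciferase robust z-score exceeds 3; genes with two or more such siRNAs out of three were retested with fresh siRNAs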
- Calls: active = raised luciferase; inactive = no rise
Here is an unselected part of about 59,000 reagents tested. About 1,510 of all reagents (2.6%) count as active. 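Calls use total luciferase alone and ignore viability, so some active siRNAs may act by altering cell number.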 The numbers tell different reagents against one gene apart. Not all columns of the deposit are shown. Reagent sequences are not shown.

EIF4A1 #1 scored total luciferase, z-score -2.15; inactive.
Depletion of EIF4A1 #2 gave: total luciferase, z-score -1.95; inactive.
EIF4A1 #3 showed total luciferase, z-score -0.809; inactive.
With knock-down of HNRNPLL #1 the results were total luciferase, z-score -0.635; inactive.
HNRNPLL #2 showed total luciferase, z-score -0.332; inactive.
HNRNPLL #3 showed total luciferase, z-score -1.36; inactive.
After knock-down of RFPL4A #1, the record shows total luciferase, z-score 0.188; inactive.
Against RFPL4A #2, the values are total luciferase, z-score 1.93; inactive.
Silencing of RFPL4A #3 resulted in: total luciferase, z-score 0.494; inactive.
Against CUL3 #1, the entry reads total luciferase, z-score -0.693; inactive.
Silencing of CUL3 #2 gave: total luciferase, z-score 1.2; inactive.
Depletion of CUL3 #3 gave: total luciferase, z-score 0.748; inactive.
Against ONECUT2 #1 the deposit lists total luciferase, z-score 1.01; inactive.
ONECUT2 #2 scored total luciferase, z-score 2.63; inactive.
Against ONECUT2 #3, the entry reads total luciferase, z-score -0.0935; inactive.
After knock-down of NUP188 #1, the record shows total luciferase, z-score 1.6; inactive.
Against NUP188 #2 the deposit lists total luciferase, z-score -1.62; inactive.
Against NUP188 #3, the entry reads total luciferase, z-score 0.348; inactive.
OGFOD2 #1 scored total luciferase, z-score 0.7; inactive.
After knock-down of OGFOD2 #2, the record shows total luciferase, z-score 1.63; inactive.
For OGFOD2 #3, the values are total luciferase, z-score -1.98; inactive.

Copied from the listing for reference:
HNRNPLL #1: total luciferase, z-score = -0.635; outcome = inactive
HNRNPLL #2: total luciferase, z-score = -0.332; outcome = inactive
HNRNPLL #3: total luciferase, z-score = -1.36; outcome = inactive
RFPL4A #1: total luciferase, z-score = 0.188; outcome = inactive

Next entries follow:
Depletion of C17orf78 #1 gave: total luciferase, z-score 0.674; inactive.
Silencing of C17orf78 #2 came out at: total luciferase, z-score -1.06; inactive.
Against C17orf78 #3, the values are total luciferase, z-score -1.02; inactive.
Against HAND2-AS1 #1, the entry reads total luciferase, z-score 0.159; inactive.
With knock-down of HAND2-AS1 #2, the record shows total luciferase, z-score -0.613; inactive.
HAND2-AS1 #3 gave total luciferase, z-score 0.159; inactive.
Knock-down of SCFD2 #1 gave: total luciferase, z-score -0.412; inactive.
Depletion of SCFD2 #2 resulted in: total luciferase, z-score -0.0692; inactive.
Knock-down of SCFD2 #3 came out at: total luciferase, z-score 0.789; inactive.
Knock-down of TBX18 #1 came out at: total luciferase, z-score -1.34; inactive.
For TBX18 #2, the values are total luciferase, z-score -1.58; inactive.
For TBX18 #3 the deposit lists total luciferase, z-score -2.04; inactive.
